Positions count from the first letter of the chain named. Tags and fusion partners may be left off the protein sequences shown. For some assays here: Construct, isoform or probe ends are uncertain for at least one entry.
Tests used:
[1] = system: T1, R2 reverse transcriptase N-terminal truncation (P2 variant) (Bombyx mori); experiment: activity assay; conditions: purified recombinant protein, protein details: N-terminal His6
T1 sequence: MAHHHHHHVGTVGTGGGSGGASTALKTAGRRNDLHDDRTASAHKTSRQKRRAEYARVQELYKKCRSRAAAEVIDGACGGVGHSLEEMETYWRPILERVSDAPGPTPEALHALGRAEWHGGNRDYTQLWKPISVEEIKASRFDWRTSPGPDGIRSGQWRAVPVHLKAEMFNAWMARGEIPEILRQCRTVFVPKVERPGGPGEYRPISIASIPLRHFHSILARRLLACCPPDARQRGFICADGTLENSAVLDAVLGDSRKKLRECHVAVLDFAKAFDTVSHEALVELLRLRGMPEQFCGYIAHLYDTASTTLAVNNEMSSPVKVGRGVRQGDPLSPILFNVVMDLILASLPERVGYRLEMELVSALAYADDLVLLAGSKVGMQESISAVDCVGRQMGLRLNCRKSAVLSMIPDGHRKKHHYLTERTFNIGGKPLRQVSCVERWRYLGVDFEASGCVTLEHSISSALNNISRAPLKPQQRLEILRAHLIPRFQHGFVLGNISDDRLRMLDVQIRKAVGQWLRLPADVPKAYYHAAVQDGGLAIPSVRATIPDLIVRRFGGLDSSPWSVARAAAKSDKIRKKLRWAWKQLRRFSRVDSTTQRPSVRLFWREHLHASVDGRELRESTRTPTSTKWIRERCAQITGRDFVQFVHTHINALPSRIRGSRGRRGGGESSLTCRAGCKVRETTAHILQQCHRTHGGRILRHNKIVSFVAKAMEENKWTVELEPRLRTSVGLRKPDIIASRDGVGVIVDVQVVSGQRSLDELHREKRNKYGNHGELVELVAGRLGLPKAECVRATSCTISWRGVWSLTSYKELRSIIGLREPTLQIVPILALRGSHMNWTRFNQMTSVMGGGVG

[2] = system: T2, R2 reverse transcriptase N-terminal truncation, endonuclease mutant KPA (P8 variant) KPD to KPA (endonuclease D to A, position not given) (Bombyx mori); experiment: activity assay; conditions: purified recombinant protein, protein details: N-terminal His6
T2 sequence: T1 sequence with D736A

AATGATACGGCGACCACCGAGATCTACACTCTTTCCCTACACGACGCTCTTCCGATCT / AGATCGGAAGAGCGTCGTGTAG [P188 DNA template/P189 primer]
activity on this sequence ([1]; DNA-templated extension and template jumping onto P188, 30 C): active

AATGATACGGCGACCACCGAGATCTACACTCTTTCCCTACACGACGCTCTTCCGATCT [P188 ssDNA acceptor]
activity on this sequence ([2]; acceptor from P173/P174 donor, detected down to 500 fM DNA, single-stranded DNA): active

CAGUCAGUCAGUCAGUCAGUGCCAAAUGCCUCGUCAUC / TGATGACGAGGCATTTGGC [P173 RNA template/P174 DNA primer]
activity on this sequence ([1]; extension and template jumping onto P173, optimum 300 mM NaCl, 5 mM MgCl2, room temperature, label: 5'-FAM on P174, DNA:RNA hybrid): active
activity on this sequence ([2]; primer extension, 30 C, 1 h, label: 5'-FAM on P174, DNA:RNA hybrid): active

CTGCAGTAATACGACTCACTATAGGATCCTCTAGAGTCGACCTGCAGGCATGCAAGCTTGGCACTGGCCGTCGTTTTACAACGTCGTGACTGGGAAAACCCTGGCGTTACCCAACTTAATCGCCTTGCAGCACATCCCCCTTTCGCCAGCTGGCGTAATAGCGAAGAGGCCCGCACCGATCGCCCTTCCCAACAGTTGCGCAGCCTGAATGGCGAATGGC [200 bp DNA fragment, heat denatured]
activity on this sequence ([2]; captured as jump acceptor from RNA priming or RNA donor P173/P174, 6-160 pg DNA, single-stranded DNA): active

GGAUCCUCUAGAGUCGACCUGCAGGCAUGCAAGCUUGGCACUGGCCGUCGUUUUACAACGUCGUGACUGGGAAAACCCUGGCGUUACCCAACUUAAUCGCCUUGCAGCACAUCCCCCUUUCGCCAGCUGGCGUAAUAGCGAAGAGGCCCGCACCGAUCGCCCUUCCCAACAGUUGCGCAGCCUGAAUGGCGAAUGGCGCCUGAUGCGGUAUUUUCUCCUUACGCAUCUGUGCGGUAUUUCACACCGCAUAUGGUGCACUCUCAGUACAAUCUGCUCUGAUGCCGCAUAGUUAAGCCAGCCCCGACACCCGCCAACACCCGCUGACGCGCCCUGACGGGCUUGUCUGCUCCCGGCAUCCGCUUACAGACAAGCUGUGACCGUCUCCGGGAGCUGCAUGUGUCAGAGGUUUUCACCGUCAUCACCGAAACGCGCGAGACGAAAGGGCCUCGUGAUACGCCUAUUUUUAUAGGUUAAUGUCAUGAUAAUAAUGGUUUCUUAGACGUCAGGUGGCACUUUUCGGGGAAAUGUGCGCGGAACCCCUAUUUGUUUAUUUUUCUAAAUACAUUCAAAUAUGUAUCCGCUCAUGAGACAAUAA / CAGGGTTATTGTCTCATGAGCG [600 nt RNA template/P172 primer]
activity on this sequence ([2]; cDNA with jump to P173, down to 0.00025 uM template, superior conversion to MMLV, DNA:RNA …): active

GGAUCCUCUAGAGUCGACCUGCAGGCAUGCAAGCUUGGCACUGGCCGUCGUUUUCAACGUCGUGACUGGGAAAACCCUGGCGUUACCCAACUUAAUCGCCUUGCAGCACAUCCCCCUUUCGCCAGCUGGCGUAAUAGCGAAGAGGCCCGCACCGAUCGCCCUUCCCAACAGUUGCGCAGCCUGAAUGGCGAAUGGC / CACGACGTTGTAAAACGACGGC [200 nt RNA template/P187 primer]
activity on this sequence ([1]; cDNA synthesis with jump to P173 acceptor, PCR detected, 30 C, DNA:RNA hybrid): active

GTTAATAACGAAATGAGCAGCCGGG [P181 TSO acceptor]
activity on this sequence ([2]; last three G are ribonucleotides, acceptor for template jumping from P173/P174, dependent on acceptor concentration): active

From patent publication US20190071711
